Assay results reported in article PMC3153501 (PLoS ONE, 2011).
Where a sequence shows no end group, the ends are not given.

Test: peptide synthesis
Settings: whole synthesis
With ASGDKIVMVV the difficulty met was “Denotes peptides that could not be synthesized at high purity”.
For CMLKGRAGT, the difficulty met was “Denotes peptides that could not be synthesized at high purity”.
For FLWDVLATT, the difficulty met was “Denotes peptides that could not be synthesized at high purity”.
In the case of LYNELYVYNI, the difficulty met was “Denotes peptides that could not be synthesized at high purity”.
With SIPPIFQLCL the difficulty met was “Denotes peptides that could not be synthesized at high purity”.
